Test results reported in article PMC7327498, “Structural basis of semaphorin‐plexin cis interaction” (The EMBO Journal, 2020).

Chains of the proteins cited; added tags and fusions are not shown. Lines headed by an entry give the natural chain unless they say otherwise; changes in a name come on top.
UniProt Q24322: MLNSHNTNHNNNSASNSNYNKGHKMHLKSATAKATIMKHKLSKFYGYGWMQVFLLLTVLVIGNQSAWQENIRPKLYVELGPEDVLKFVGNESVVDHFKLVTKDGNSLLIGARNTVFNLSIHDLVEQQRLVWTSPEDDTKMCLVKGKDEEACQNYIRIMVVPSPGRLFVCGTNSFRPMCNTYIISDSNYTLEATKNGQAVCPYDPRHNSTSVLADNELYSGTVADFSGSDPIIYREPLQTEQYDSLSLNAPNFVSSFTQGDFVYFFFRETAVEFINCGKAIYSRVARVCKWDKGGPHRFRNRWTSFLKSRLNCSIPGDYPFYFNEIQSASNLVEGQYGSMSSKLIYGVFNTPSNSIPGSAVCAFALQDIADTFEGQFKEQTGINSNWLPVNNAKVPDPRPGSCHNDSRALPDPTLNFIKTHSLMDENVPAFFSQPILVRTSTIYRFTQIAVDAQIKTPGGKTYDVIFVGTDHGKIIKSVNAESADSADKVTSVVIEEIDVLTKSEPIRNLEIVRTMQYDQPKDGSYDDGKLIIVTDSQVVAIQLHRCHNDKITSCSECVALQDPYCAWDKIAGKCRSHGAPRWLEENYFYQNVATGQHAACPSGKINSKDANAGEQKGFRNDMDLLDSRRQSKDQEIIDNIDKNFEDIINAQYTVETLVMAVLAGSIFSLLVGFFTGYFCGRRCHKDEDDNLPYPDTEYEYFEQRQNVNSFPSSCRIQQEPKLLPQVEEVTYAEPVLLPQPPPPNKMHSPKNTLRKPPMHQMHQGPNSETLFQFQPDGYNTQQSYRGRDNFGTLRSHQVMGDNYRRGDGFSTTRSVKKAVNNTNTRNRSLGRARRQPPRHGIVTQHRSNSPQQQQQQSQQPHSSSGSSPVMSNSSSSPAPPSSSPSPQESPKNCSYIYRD

Target: T1, PlexA‐mClover (Drosophila melanogaster, UniProt Q9V491 28-1311)
T1 construct: Plexin A (PlexA), Drosophila melanogaster, residues 28–1,311: ectodomain followed by a transmembrane segment; not the purified PlexA‐mClover (residues 67–1,274) used as donor-only control in solution; also called FRET donor PlexA‐mClover; source: COS-7, transiently transfected, on live cells; not shown: mClover, C-terminal, kept
T1 sequence (looked up): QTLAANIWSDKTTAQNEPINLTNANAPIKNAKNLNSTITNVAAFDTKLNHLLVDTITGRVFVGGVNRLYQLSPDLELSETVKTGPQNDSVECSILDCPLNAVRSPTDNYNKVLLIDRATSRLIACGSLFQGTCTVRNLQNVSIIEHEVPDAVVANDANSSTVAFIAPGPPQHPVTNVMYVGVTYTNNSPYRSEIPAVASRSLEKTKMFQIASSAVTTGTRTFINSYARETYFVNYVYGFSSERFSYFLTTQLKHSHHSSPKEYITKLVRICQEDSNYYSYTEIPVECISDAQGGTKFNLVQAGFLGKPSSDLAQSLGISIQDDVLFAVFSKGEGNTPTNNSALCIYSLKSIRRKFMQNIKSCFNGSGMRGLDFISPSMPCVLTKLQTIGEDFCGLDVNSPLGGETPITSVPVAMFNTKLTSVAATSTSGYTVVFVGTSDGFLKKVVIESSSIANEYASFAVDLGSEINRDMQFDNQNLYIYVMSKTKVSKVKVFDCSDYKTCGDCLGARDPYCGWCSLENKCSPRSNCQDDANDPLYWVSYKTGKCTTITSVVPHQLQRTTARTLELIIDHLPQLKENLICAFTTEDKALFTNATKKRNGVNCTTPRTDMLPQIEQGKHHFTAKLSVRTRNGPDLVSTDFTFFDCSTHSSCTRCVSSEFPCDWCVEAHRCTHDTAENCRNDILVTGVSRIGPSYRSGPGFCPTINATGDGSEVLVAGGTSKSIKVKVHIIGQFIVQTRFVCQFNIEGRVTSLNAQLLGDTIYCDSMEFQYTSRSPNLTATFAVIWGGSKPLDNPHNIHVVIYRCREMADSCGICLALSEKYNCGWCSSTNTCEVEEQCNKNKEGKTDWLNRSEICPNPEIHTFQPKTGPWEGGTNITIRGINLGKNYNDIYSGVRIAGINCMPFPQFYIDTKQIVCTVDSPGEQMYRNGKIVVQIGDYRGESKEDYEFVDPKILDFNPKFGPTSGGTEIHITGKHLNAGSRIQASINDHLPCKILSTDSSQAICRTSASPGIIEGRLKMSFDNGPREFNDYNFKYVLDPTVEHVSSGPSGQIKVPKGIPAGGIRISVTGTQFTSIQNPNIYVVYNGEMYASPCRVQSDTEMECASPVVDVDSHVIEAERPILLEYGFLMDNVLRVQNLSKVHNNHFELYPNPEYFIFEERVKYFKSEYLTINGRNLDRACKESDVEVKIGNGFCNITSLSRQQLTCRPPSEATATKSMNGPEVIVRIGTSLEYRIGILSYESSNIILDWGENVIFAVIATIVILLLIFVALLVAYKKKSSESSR
Test: FRET or BRET; FRET-FLIM in live COS-7 cells transiently co-transfected with PlexA‐mClover (donor) and semaphorin‐mRuby2 (acceptor), cis on one cell surface, 37°C; donor alone τav 2.72 ± 0.03 ns

binding: no binding
Substance: Sema1a‐mRuby2 (from UniProt Q24322) (ligand)

These are yes or no findings as the source states them, for the method shown. Binding seen in cells or lysates may run through a third protein.
